According to paper PMC7089733:

Tested on: Nop5-E65C spin-labelled + L7Ae + fibrillarin E65C,L113K,V223E
Experiment: NMR PRE
Details: 50 mM NaPi, 500 mM NaCl, pH 6.6, 100% D2O (NMR), 55 C, SANS in 42%:58% D2O:H2O, substrate at 1.2-1.25 molar equivalents, recombinant protein

Sequence	binding result (weaker PRE on L7Ae than with substrate D')	binding result (stronger PRE on L7Ae than with substrate D)
GCGAGCAAUGAUGAGUGAUGGGCGAACUGAGCUCGAAAGAGCAAUGAUGACGGAGGUGAUCACUGAGCUCGC / GUAGAUCACCUCCG [st-sR26 + substrate D]	binds more weakly	–
GCGAGCAAUGAUGAGUGAUGGGCGAACUGAGCUCGAAAGAGCAAUGAUGACGGAGGUGAUCACUGAGCUCGC / GCUUCGCCCAUCAC [st-sR26 + substrate D']	–	binds

For at least one entry, the source does not settle the construct or the ends of the probe. The comparison behind a weaker result is the experiment's own reference, which may not be listed here.
